These are yes or no findings as the source states them, for the method shown. For some assays here: Binding seen in cells or lysates may run through a third protein. Some results given as binding are weak or reduced against the parent protein; the word gives no strength. For some assays here: Sequences can lack the tags named with a protein. Values belong to the binder of their own block, whether it stands above or below them.
Tests used:
[1] = molecular target: T1, PSGL1 (naturally expressed on leukocytes) (human (endogenous in PBMCs)) (UniProt Q14242); assay: proximity ligation; Duolink-PLA on fixed, permeabilised human PBMCs; polyclonal anti-Siglec-5 and monoclonal anti-PSGL1 antibodies; signal only when the two antigens are less than 40 nm apart
T1 sequence: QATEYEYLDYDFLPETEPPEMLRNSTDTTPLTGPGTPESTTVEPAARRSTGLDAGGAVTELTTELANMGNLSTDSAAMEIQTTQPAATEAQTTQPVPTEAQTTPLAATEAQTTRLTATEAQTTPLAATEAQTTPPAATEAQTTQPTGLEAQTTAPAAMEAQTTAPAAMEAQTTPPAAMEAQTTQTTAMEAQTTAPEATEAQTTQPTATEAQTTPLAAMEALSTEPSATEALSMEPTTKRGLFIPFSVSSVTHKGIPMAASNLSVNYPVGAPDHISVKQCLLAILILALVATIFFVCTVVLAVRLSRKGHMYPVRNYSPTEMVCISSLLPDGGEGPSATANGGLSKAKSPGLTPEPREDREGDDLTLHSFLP

[2] = molecular target: heptameric Siglec-5/C4BP fusion protein (UniProt O15389); assay: BLI; Octet-QK; sSiglec-5/C4BP (10 μg/ml) immobilised onto amine-coupling biosensors, incubated with sPSGL1/Fc, sL-selectin/Fc or sCD44/Fc (10 μg/ml); preliminary experiments; both purified

- binding [1]: binds
B1: Siglec-5 (naturally expressed on PBMCs) (receptor, UniProt O15389 17-551)
chain: EKPVYELQVQKSVTVQEGLCVLVPCSFSYPWRSWYSSPPLYVYWFRDGEIPYYAEVVATNNPDRRVKPETQGRFRLLGDVQKKNCSLSIGDARMEDTGSYFFRVERGRDVKYSYQQNKLNLEVTALIEKPDIHFLEPLESGRPTRLSCSLPGSCEAGPPLTFSWTGNALSPLDPETTRSSELTLTPRPEDHGTNLTCQMKRQGAQVTTERTVQLNVSYAPQTITIFRNGIALEILQNTSYLPVLEGQALRLLCDAPSNPPAHLSWFQGSPALNATPISNTGILELRRVRSAEEGGFTCRAQHPLGFLQIFLNLSVYSLPQLLGPSCSWEAEGLHCRCSFRARPAPSLCWRLEEKPLEGNSSQGSFKVNSSSAGPWANSSLILHGGLSSDLKVSCKAWNIYGSQSGSVLLLQGRSNLGTGVVPAALGGAGVMALLCICLCLIFFLIVKARRKQAAGRPEKMDDEDPIMGTITSGSRKKPWPDSPGDQASPPGDAPPLEEQKELHYASLSFSEMKSREPKDQEAPSTTEYSEIKTSK

- binding [2]: binds
B2: soluble recombinant human L-selectin fused to human Fc (Fc fusion, UniProt P14151 39-332)
chain: WTYHYSEKPMNWQRARRFCRDNYTDLVAIQNKAEIEYLEKTLPFSRSYYWIGIRKIGGIWTWVGTNKSLTEEAENWGDGEPNNKKNKEDCVEIYIKRNKDAGKWNDDACHKLKAALCYTASCQPWSCSGHGECVEIINNYTCNCDVGYYGPQCQFVIQCEPLEAPELGTMDCTHPLGNFSFSSQCAFSCSEGTNLTGIEETTCGPFGNWSSPEPTCQVIQCEPLSAPDLGIMNCSHPLASFSFTSACTFICSEGTELIGKKKTICESSGIWSNPSPICQKLDKSFSMIKEGDYN
